For at least one compound, name, drawing or mass did not settle the structure.
System: palbociclib-resistant breast cancer cells (CTG-1207)
Assay: Palbociclib-resistant breast cancer PDX model (CTG-1207)
Assay type: in vivo, mice
Settings: Compound (A) 80 mg/kg, palbociclib 50 mg/kg, alone or in combination; FIG. 10A
Experimental: The antitumor activity of Compound (A) in combination with palbociclib was further evaluated in a palbociclib-resistant breast cancer PDX model (CTG-1207). Mice were inoculated subcutaneously with palbociclib-resistant breast cancer cells in DMEM Matrigel mixture (1:1 ratio) without serum for tumor development. Once tumor size reached approximately 200 mm^3, mice were randomized into 4 groups (8 mice per group) and treated with vehicle control, 80 mg/kg Compound (A) alone, 50 mg/kg Palbociclib alone, or Compound (A) at 80 mg/kg in combination with 50 mg/kg palbociclib. Study endpoints included daily body weight, clinical observations, tumor volume.

Structure (SMILES): CC(=O)c1c(C)c2cnc(Nc3ccc(N4CCNCC4)cn3)nc2n(C2CCCC2)c1=O [palbociclib, reference compound]
- tumor growth / TGI (in words): demonstrated lower TGI

— US20240325397A1, “USE OF COMBINATION THERAPY FOR TREATING CANCER” (Recurium IP Holdings, LLC, priority 2021, published 2024)
